# Laboratory results: PubChem BioAssay AID1671190 (National Center for Advancing Translational Sciences (NCATS), 2021)
# Protein sequences, listed by entry. Tags and fused reporters are not part of them. Lines headed by an entry give the natural chain unless they say otherwise; changes in a name come on top.
# UniProt P18054: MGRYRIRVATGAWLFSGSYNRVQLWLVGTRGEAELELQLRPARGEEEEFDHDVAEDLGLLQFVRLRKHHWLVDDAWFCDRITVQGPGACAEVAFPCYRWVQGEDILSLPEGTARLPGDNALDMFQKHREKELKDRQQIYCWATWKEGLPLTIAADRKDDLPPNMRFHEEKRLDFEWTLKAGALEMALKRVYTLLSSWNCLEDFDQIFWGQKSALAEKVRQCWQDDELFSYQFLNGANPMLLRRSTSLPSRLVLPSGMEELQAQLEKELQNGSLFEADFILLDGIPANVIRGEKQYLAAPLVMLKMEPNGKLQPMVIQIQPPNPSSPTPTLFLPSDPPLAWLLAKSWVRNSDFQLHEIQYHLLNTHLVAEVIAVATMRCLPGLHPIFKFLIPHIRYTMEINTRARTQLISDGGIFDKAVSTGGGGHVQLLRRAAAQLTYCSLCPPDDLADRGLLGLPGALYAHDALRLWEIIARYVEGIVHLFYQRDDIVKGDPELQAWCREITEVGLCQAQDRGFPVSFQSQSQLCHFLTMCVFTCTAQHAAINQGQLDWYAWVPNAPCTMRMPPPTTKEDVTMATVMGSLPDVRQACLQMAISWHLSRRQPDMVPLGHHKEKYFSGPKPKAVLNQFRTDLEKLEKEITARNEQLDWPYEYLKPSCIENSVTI
# Hit rate of the full screen: of about 580,000 compounds, about 6,100 (1.1%) were called active. The shares of active, inactive and inconclusive entries below differ from those in the screen. Calls come from the whole dose curve; as a rule, active = well fitted inhibition curve with a large enough effect; inconclusive = small, poorly fitted or top-dose-only effect, or another doubt; inactive = no such curve, though single readings can be large or run the other way. Where the call is inconclusive, the potency comes from a doubtful curve fit.
# Biological target: Polyunsaturated fatty acid lipoxygenase ALOX12 (Homo sapiens) (UniProt P18054)
# Assay: Primary qHTS assay for inhibitors of human arachidonate 12S-lipoxygenase (ALOX12): Round 2
# Conditions: purified 12hLO, xylenol orange hydroperoxide absorbance; activity change, negative = inhibition: at 108 µM (top of the series) unless noted
# Method in brief: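 Purified human 12hLO (150 nM final) in 25 mM Hepes, 0.01% Triton X-100, pH 7.0 was preincubated 15 min at room temperature with compound. Then 40 uM arachidonic acid was added, 30 min. Hydroperoxide was read by Fe-XO absorbance ratio 573/405 nm.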
# % is set by controls: 0 for no effect and ±100 for the full control effect; potency is the fitted concentration of half-maximal effect.
SMILES,Potency,"activity change, negative = inhibition"
COC(=O)C(C#N)C(=C1C(=O)CC(C)(C)CC1=O)c1ccc(O)cc1 (stereo not given),"inconclusive: 35.5 µM [inhibitor, partial curve, poor fit]",
CN(C)c1cccc(C(=O)Nc2cccc(F)c2)c1,"inconclusive: 25.1 µM [inhibitor, single point]",
CCCCN(CCCC)c1nc2ccccc2nc1C(C#N)C(=O)NCCCOC (stereo not given),,inactive: 1.11%
COc1ccccc1-c1csc(C(O)(c2ccccc2)C(F)(F)F)n1 (stereo not given),"inconclusive: 79.4 µM [inhibitor, single point]",
Cc1ccc2nc(N(CCN3CCOCC3)C(=O)CCS(=O)(=O)c3ccccc3)sc2c1,"inconclusive: 39.8 µM [inhibitor, partial curve]",
c1cncc(-c2nc(-c3ccco3)cs2)c1,"inconclusive: 44.7 µM [inhibitor, partial curve, poor fit]",
CN(C)CCNc1nc2sc3c(c2c(=O)n1-c1ccc(F)cc1)CCCCC3,"inconclusive: 89.1 µM [inhibitor, partial curve, poor fit]",
CCOc1c2ccccc2nn1CCOC,,inactive: -16.5%
COc1cccc(NC(=O)Cn2cc(S(=O)(=O)Cc3ccccc3F)c3ccccc32)c1,"inconclusive: 56.2 µM [inhibitor, partial curve, poor fit]",
COc1cc(C(=O)N2CCN(c3ncnc4sc(C)c(C)c34)CC2)cc(OC)c1OC,,inactive: 12.3%
CCOc1ccccc1CNC(=O)c1ccccc1NC(=O)C1=CSCCO1,,inactive: 2.98%
C#CCNC(=O)C1=C[C@@H](C(C)(C)C)C[C@@H](OCc2ccc(CO)cc2)O1,"inconclusive: 25.1 µM [inhibitor, partial curve, poor fit]",
CCn1c(SCc2cc3c(cc2Br)OCO3)nc2cc(S(N)(=O)=O)ccc21,"inconclusive: 31.6 µM [inhibitor, partial curve, poor fit]",
COC(=O)CN1C(=S)N(c2ccc(F)cc2)C(=O)C1CC(=O)Nc1ccc(F)cc1 (stereo not given),"inconclusive: 31.6 µM [inhibitor, partial curve, poor fit]",
COC(=O)c1cccc(COC(=O)c2cccnc2SC)c1,"inconclusive: 44.7 µM [inhibitor, partial curve, poor fit]",
CCc1ccc(C(=O)C(C)OC(=O)Cc2n[nH]c(=O)c3ccccc23)cc1 (stereo not given),"inconclusive: 100 µM [inhibitor, single point]",
S=c1[nH]nc(-c2cc(-c3ccccc3)n[nH]2)n1/N=C/C(Br)=C/c1ccccc1,"inconclusive: 35.5 µM [inhibitor, partial curve, poor fit]",
CCn1nc(C)c2c(-c3ccccc3)cc(=O)n(C(C)C(=O)NCc3ccccc3OC)c21 (stereo not given),"inconclusive: 126 µM [inhibitor, single point]",
O=C(NCc1ccccc1)c1cc(C2CCCN(C(=O)CCCc3ccccc3)C2)on1 (stereo not given),,inactive: 10.7%
CCc1cccc(CC)c1NC(=S)NCc1ccc2c(c1)OCO2,"inconclusive: 50.1 µM [inhibitor, partial curve, poor fit]",
Cc1ccc(S(=O)(=O)c2nnn3c2nc(NCc2cccs2)c2sccc23)cc1,,inactive: -16.9%
CN1OC[C@@H]2CN(C(=O)c3cccc4ccccc34)[C@H](c3ccc(N4CCCCC4)cc3)C[C@@H]21,"inconclusive: 141 µM [inhibitor, partial curve, poor fit]",

# Filtered by structure: those above containing an aryl thioether with sulfur outside any ring (2)
SMILES,Potency,"activity change, negative = inhibition"
CCn1c(SCc2cc3c(cc2Br)OCO3)nc2cc(S(N)(=O)=O)ccc21,"inconclusive: 31.6 µM [inhibitor, partial curve, poor fit]",
COC(=O)c1cccc(COC(=O)c2cccnc2SC)c1,"inconclusive: 44.7 µM [inhibitor, partial curve, poor fit]",

# The list continues.

SMILES,Potency,"activity change, negative = inhibition"
Cc1nn(-c2ccccc2)c(C)c1C(=O)OC(C)C(=O)Nc1ccc(C(N)=O)cc1 (stereo not given),,inactive: -16.1%
COc1cccc(NC(=O)c2oc3ccccc3c2NC(=O)C2CCCCC2)c1,"inconclusive: 126 µM [inhibitor, partial curve, poor fit]",
CCOC(=O)C(=O)C1=C(N2CCOCC2)/C(=C/c2ccccc2)CC1,"inconclusive: 1.12 µM [inhibitor, full curve, poor fit]",
COc1ccc(CC(=O)Nc2ccc(NC(=O)c3ccc(Br)cc3)cc2)cc1OC,"inconclusive: 126 µM [inhibitor, partial curve, poor fit]",
CCOc1cccc2sc(N(CCN(C)C)C(=O)c3cc4ccccc4cc3OC)nc12,"inconclusive: 70.8 µM [inhibitor, partial curve, poor fit]",
COc1ccc(C(=O)/C=C/c2cn(CC(O)CN3CCc4ccccc43)c3ccccc23)cc1 (stereo not given),"inconclusive: 89.1 µM [inhibitor, partial curve, poor fit]",
CCCN1C(=O)c2cc(C(=O)Nc3ccccc3C)ccc2C1Nc1ccccc1C (stereo not given),"inconclusive: 141 µM [inhibitor, partial curve, poor fit]",
Cc1c(NC(=O)CCC(=O)N2CCOCC2)c(=O)n(-c2ccccc2)n1C,,inactive: -19.2%
CCCC(C(=O)Nc1ccc(S(=O)(=O)Nc2ncccn2)cc1)c1ccccc1 (stereo not given),"inconclusive: 39.8 µM [inhibitor, partial curve, poor fit]",
COC(=O)c1ccc(Cn2c(C)c(C(=O)NCc3cccs3)sc2=O)o1,"inconclusive: 100 µM [inhibitor, single point]",
CCCc1nc(SC)ncc1C(=O)Nc1ccc(C)cc1Cl,"inconclusive: 5.01 µM [inhibitor, full curve, poor fit]",
COc1ccc(O)c(C2CC(=O)Nc3c2c(C)nn3-c2ccc(C)cc2)c1 (stereo not given),"inconclusive: 17.8 µM [inhibitor, full curve, poor fit]",
COc1cccc(/C=N/NC(N)=S)c1OCc1cccc(Cl)c1,active: 35.5 µM,
CO/N=C(\Cn1ncc(NC2CCCCC2)c(Br)c1=O)c1ccc(Cl)cc1,"inconclusive: 50.1 µM [inhibitor, partial curve, poor fit]",
FC(F)(F)c1ccccc1Cc1c(-c2cccc(Cl)c2)nc2ccc(Cl)cn12,"inconclusive: 39.8 µM [inhibitor, partial curve, poor fit]",
CCOc1ccc(NC(=O)CSc2oc(-c3ccccc3)nc2S(=O)(=O)c2ccc(Cl)cc2)cc1,"inconclusive: 25.1 µM [inhibitor, full curve, poor fit]",
CCOCc1cc(CN2CCN(c3ccccc3OC)CC2)c(O)c2ncccc12,"inconclusive: 17.8 µM [inhibitor, full curve]",
O=C(c1nc2n(n1)C(c1ccc(Cl)cc1)C=C(c1ccccc1)N2)N1CCOCC1 (stereo not given),"inconclusive: 0.891 µM [inhibitor, full curve, poor fit]",
O=C(Nc1csc([N+](=O)[O-])c1)Nc1ccccc1Cl,,inactive: 0%
COc1ccc(-c2noc(Nc3ccc(OC)c(OC)c3)n2)cc1,,inactive: -6.84%
O=[N+]([O-])c1cccc(/C=N/N=C(c2ccccc2)c2ccccc2)c1,,inactive: 3.73%
COC(=O)C1=C(C)N(Cc2ccccc2)C(=S)NC1c1ccc(Cl)cc1 (stereo not given),active: 35.5 µM,

SMILES,Potency,"activity change, negative = inhibition"
CCN(C(=O)C(C)Sc1nnc(-c2ccncc2)n1C)C1CCCCC1 (stereo not given),"inconclusive: 39.8 µM [inhibitor, partial curve, poor fit]",
CCCCN1C(=O)NC(c2cccc([N+](=O)[O-])c2)C(C(=O)OCC)=C1C (stereo not given),"inconclusive: 100 µM [inhibitor, single point]",
CCCNc1nc(-c2ccc3c(c2)CCC(=O)N3)cs1,"inconclusive: 39.8 µM [inhibitor, partial curve, poor fit]",
Cc1ccc(-c2csc(Nc3ccc(O)c(C(=O)O)c3)n2)cc1,active: 35.5 µM,
Cc1cnc(CNc2ncncc2-c2cccc(NS(C)(=O)=O)c2)cn1,"inconclusive: 5.62 µM [inhibitor, full curve, poor fit]",
CC(C)c1ncc(-c2ccccc2)[nH]1,,inactive: -0.628% [at 12.5 µM]
Clc1ccc(-c2nnc(-c3cccnc3)o2)cc1,,inactive: 0%
COc1cccc(C(=O)N2CCC(N3C[C@H](O)C[C@H]3C(=O)NCc3ccccc3)CC2)c1,,inactive: 22.5%
Cc1ccc(-c2noc(CNc3ccc(F)cc3C)n2)cc1,"inconclusive: 56.2 µM [inhibitor, partial curve, poor fit]",
CC1=C[C@@H](CN2C(=O)C(C)=C(C)C2=O)[C@H](C(C)C)C[C@H]1Cc1nc2ccc(C)cc2[nH]1,"inconclusive: 63.1 µM [inhibitor, partial curve, poor fit]",
CN1CCN(c2ncc3nc(-c4cc(F)cc(F)c4)c(=O)n(Cc4cccs4)c3n2)CC1,active: 17.8 µM,
COc1cccc(CNC(=O)CC2CCN(C(=O)c3ccc4nc(-c5ccccc5)oc4c3)CC2)c1,,inactive: 23.9%
O=C1Nc2cc(C(=O)NCCN3CCCCCC3)ccc2S/C1=C/c1ccccc1F,active: 28.2 µM,
Cc1ccc(SC(C)C(=O)Nc2ccc(F)cc2F)cc1 (stereo not given),,inactive: 4.8%
CCCCCCc1ccc(C(=O)Oc2ccc(C#N)cc2)cc1,,inactive: -5.08%
CN(C)CCNC(=O)C(=O)NCC(c1ccc2c(c1)OCO2)N1CCOCC1 (stereo not given),,inactive: -24.8%
CN(C)CCCNC(=O)c1cc2c3ccccc3n(C)c2s1,"inconclusive: 100 µM [inhibitor, single point]",
Cc1c(C(=O)O)oc2c1-c1nn(Cc3ccc(Cl)cc3)cc1CC2,"inconclusive: 39.8 µM [inhibitor, partial curve, poor fit]",
Cc1cccc(-n2cnc3sc(C)c(C)c3c2=O)c1,"inconclusive: 10 µM [inhibitor, full curve, poor fit]",
Cc1ccc2cc(C(c3nnnn3Cc3ccccc3)N3CCN(c4ccccc4)CC3)c(=O)[nH]c2c1 (stereo not given),"inconclusive: 31.6 µM [inhibitor, partial curve, poor fit]",
CCC(C)Nc1nc(-c2ccc([N+](=O)[O-])cc2)c(C(=O)Nc2ccccc2)s1 (stereo not given),"inconclusive: 31.6 µM [inhibitor, partial curve, poor fit]",

# Individual results from above.
# Potency with `Cc1ccc(-c2noc(CNc3ccc(F)cc3C)n2)cc1` reads inconclusive: 56.2 µM [inhibitor, partial curve, poor fit]
# Potency with `Cc1ccc(-c2csc(Nc3ccc(O)c(C(=O)O)c3)n2)cc1` reads active: 35.5 µM
